Results are given in words; binding and its absence hold for the method and conditions named. Binding seen in cells or lysates may run through a third protein. Some binding calls cover weakened binding; strength is not graded here. Blank lines part the entries; values can stand above or below the substance they belong to.
Legend:
[1] = molecular target: Parkin, endogenous in SH-SY5Y cells (human (endogenous in SH-SY5Y)) (UniProt O60260); assay: co-IP; endogenous proteins; SH-SY5Y cells treated with 25 mM thapsigargin for 5 hrs, crosslinked with 0.4% PFA for 20 mins on ice, lysed in Co-IP buffer (20 mM Tris-HCl pH 8, 137 mM NaCl, 1% NP-40, 2 mM EDTA, 10% glycerol); pull-down with Parkin monoclonal antibody (IgG as control) and protein A/G magnetic beads, immunoblot with CHOP and Parkin antibody
[2] = molecular target: Myc-CHOP (pcDNA-Myc-CHOP, wild type) (UniProt P35639); assay: co-IP; HL-1 cells cotransfected with pcDNA-Myc-CHOP and p3xFlag-Parkin; reciprocal pull-down with anti-Myc agarose, immunoblot with Parkin antibody; lysis buffer 50 mM Tris-HCl pH 7.4, 1% Triton X-100, 0.5% NP-40, 300 mM NaCl
[3] = molecular target: 3xFlag-Parkin (WT-Parkin subcloned into p3xFlag) (UniProt O60260); assay: co-IP; HL-1 cells cotransfected with pcDNA-Myc-CHOP and p3xFlag-Parkin; immunoprecipitation with anti-Flag M2 agarose overnight at 4 °C, immunoblot with anti-CHOP; lysis buffer 50 mM Tris-HCl pH 7.4, 1% Triton X-100, 0.5% NP-40, 300 mM NaCl

Chains of the proteins cited; added tags and fusions are not shown.
UniProt O60260: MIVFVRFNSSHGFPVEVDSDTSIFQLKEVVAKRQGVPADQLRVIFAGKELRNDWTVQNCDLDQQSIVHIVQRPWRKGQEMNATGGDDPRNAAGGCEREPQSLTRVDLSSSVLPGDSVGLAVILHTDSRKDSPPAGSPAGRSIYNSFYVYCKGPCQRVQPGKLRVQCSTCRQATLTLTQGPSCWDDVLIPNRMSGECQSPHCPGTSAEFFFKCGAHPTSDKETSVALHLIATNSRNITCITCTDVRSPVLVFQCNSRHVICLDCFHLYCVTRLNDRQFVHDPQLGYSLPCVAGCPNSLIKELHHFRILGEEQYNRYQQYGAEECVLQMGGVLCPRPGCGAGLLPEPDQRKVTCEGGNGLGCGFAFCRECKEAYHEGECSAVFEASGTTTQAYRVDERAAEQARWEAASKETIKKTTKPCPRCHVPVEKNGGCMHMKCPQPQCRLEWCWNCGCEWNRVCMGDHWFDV
UniProt P35639: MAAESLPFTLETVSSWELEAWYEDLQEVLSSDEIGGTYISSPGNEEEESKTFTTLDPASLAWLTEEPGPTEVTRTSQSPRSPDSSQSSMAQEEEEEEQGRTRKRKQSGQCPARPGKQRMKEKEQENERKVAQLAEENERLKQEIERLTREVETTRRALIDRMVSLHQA
UniProt P35638: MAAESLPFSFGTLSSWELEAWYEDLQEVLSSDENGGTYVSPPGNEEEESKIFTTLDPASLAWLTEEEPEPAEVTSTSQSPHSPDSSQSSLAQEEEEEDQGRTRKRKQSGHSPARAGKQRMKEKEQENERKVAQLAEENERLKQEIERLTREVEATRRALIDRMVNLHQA

- binding [1]: binds
Substance: CHOP, endogenous in SH-SY5Y cells (from UniProt P35638 1-169)

- binding [2]: binds
Substance: 3xFlag-Parkin (WT-Parkin subcloned into p3xFlag) (from UniProt O60260 1-465) (enzyme)

- binding [3]: binds
Substance: Myc-CHOP (pcDNA-Myc-CHOP, wild type) (from UniProt P35639 1-168)

— publication PMC5437023
